From paper PMC12059206 come the findings set out here.

Amino acid sequences for entries named in this document (tags omitted).
UniProt Q06413: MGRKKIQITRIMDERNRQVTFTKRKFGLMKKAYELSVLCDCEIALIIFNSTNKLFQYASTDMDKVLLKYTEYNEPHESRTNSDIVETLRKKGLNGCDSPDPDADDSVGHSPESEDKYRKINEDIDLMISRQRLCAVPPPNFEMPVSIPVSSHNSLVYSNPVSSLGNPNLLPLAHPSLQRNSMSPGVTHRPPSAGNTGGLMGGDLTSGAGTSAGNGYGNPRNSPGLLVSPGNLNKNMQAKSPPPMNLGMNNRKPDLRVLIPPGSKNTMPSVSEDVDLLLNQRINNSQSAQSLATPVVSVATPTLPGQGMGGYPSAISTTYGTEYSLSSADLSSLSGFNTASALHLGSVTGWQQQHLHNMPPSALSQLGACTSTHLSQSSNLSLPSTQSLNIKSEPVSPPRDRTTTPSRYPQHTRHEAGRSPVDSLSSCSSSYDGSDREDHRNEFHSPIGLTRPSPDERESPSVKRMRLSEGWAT

The assay addresses T1, FLAG-tagged SENP1 (UniProt Q9P0U3).
T1 sequence: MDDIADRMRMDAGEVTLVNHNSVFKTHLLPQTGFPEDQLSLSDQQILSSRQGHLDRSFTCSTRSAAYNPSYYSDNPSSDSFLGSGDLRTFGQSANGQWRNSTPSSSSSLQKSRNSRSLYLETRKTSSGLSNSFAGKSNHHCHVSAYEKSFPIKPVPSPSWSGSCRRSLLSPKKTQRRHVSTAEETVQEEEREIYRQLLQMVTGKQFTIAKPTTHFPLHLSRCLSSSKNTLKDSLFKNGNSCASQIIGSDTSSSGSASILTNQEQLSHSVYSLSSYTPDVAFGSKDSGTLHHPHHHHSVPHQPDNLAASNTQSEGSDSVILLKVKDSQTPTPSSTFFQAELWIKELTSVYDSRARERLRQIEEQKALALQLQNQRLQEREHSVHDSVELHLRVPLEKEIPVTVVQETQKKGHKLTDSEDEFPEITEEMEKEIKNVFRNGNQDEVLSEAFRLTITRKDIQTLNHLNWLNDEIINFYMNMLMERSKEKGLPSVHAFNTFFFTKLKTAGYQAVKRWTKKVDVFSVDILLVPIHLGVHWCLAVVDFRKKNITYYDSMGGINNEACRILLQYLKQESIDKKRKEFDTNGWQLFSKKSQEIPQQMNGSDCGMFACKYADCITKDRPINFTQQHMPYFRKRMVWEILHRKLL
Nature of the assay: co-IP; exogenously expressed proteins in HEK293T cells; NP-40 lysis buffer; supernatant incubated with anti-FLAG M2 Affinity Gel overnight at 4°C; washed four times; western blotting. For orientation: Immunoblotting shows a protein as a band on a membrane.

These are yes or no findings as the source states them, for the method shown. Binding seen in cells or lysates may run through a third protein. Some binding calls cover weakened binding; strength is not graded here. Where a sequence is shown, tags or fusion partners need not be part of it.

Turning to MEF2C (from UniProt Q06413 1-473), the binding result is given as “binds”.
